Measurements reported in PMC8961594.
No constants are given. Whether binding was seen depends on the method and setting. In cells and extracts the contact can be indirect. Some binding calls cover weakened binding; strength is not graded here.

Chains of the proteins cited; added tags and fusions are not shown.
UniProt P06733: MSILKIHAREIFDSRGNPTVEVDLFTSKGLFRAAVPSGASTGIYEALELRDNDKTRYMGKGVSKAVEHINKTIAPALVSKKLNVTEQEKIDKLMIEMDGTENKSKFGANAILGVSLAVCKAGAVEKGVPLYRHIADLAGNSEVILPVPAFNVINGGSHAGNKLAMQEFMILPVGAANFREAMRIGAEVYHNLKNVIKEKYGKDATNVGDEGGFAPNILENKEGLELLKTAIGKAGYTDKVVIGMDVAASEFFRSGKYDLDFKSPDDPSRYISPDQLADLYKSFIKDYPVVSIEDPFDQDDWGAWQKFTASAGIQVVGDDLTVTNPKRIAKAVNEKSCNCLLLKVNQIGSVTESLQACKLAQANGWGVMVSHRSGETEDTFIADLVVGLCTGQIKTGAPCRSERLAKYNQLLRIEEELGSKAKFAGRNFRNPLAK
UniProt Q96CW1: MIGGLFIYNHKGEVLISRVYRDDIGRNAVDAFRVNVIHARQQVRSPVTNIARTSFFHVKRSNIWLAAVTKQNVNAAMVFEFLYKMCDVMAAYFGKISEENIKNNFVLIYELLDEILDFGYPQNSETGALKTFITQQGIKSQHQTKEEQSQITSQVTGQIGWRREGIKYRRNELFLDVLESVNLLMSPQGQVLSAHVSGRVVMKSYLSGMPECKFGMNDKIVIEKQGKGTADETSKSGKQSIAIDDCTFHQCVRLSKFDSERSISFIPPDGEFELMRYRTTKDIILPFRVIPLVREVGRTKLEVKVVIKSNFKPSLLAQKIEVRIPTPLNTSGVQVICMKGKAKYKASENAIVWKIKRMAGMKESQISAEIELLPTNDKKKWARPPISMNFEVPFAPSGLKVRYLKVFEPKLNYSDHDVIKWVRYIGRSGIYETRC

Target: T1, Protease-Activated Receptor 1 (PAR1) (human (endogenous in HUVEC)) (UniProt P25116)
T1 sequence: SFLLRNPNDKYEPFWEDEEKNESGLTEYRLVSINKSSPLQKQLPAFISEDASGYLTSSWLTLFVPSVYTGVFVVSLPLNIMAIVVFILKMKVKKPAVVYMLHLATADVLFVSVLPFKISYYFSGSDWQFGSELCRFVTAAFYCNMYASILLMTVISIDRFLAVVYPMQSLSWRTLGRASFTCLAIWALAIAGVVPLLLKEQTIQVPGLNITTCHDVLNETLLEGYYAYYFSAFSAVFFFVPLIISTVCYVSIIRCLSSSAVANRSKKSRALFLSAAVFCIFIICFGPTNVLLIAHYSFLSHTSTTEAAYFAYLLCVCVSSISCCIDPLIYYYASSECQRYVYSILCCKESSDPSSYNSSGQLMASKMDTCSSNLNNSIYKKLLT
Test: co-IP; HUVEC lysates (untreated or Plg-treated) precleared, incubated with antibody to PAR1 or PAR2 or control IgG 4 h at 4 °C, Protein A/G PLUS beads overnight at 4 °C; immunoblot for AP2µ or ENO-1

Row | binding | Substance
1 | no binding | Enolase-1 (ENO-1) (from UniProt P06733 1-434)
2 | binds | clathrin adaptor protein AP2µ (from UniProt Q96CW1 1-435)
